Assay results reported in PubChem BioAssay AID493014 (National Center for Advancing Translational Sciences (NCATS), 2011).
This is one part of the list. The main result of the screen is listed elsewhere. These columns were measured beside it and carry no call. Compounds called inactive in the main read-out are mostly missing here. Potencies come from curve fits of mixed quality, noted in brackets.

Assay: qHTS Assay to Find Inhibitors of Chronic Active B-Cell Receptor Signaling
Conditions: ABC-DLBCL IkBa-CBG/CBR reporter, luminescence ratio (green luciferase fused to IkBa over red control in TMD8 lymphoma cells), 4 h
How it was run: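 Compounds up to 46 uM were incubated four hours with TMD8 cells whose green CBG68 luciferase is fused to IkappaBalpha; red CBR luminescence normalised the signal, and concentration-effect curves were fitted to fusion, red and ratio data.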

[1] = measured here: CBR red luminescence, cell number
[2] = measured here: IkBa-CBG green luminescence

SMILES	AC50 [1]	AC50 [2]
CCOC(=O)C1(CC2CCCCO2)CCN(Cc2cc(F)ccc2-n2cccn2)CC1 (centres undefined)	25.1 µM [falling, single point]	–
COc1cccc(CC(=O)Nc2ccc(-c3csc(C)n3)cc2)c1	22.4 µM [falling, single point]	–
COC(=O)CCCC1=CC2=C(c3ccccc3)C(=O)C(C)(OC(=O)C3CCCC3)C(=O)C2=CN1C1CCCCC1 (centres undefined)	3.98 µM [rising, partial curve, poor fit]	–
CCCN1C(=O)c2ccccc2NC1c1ccc(Cl)c(Cl)c1 (centres undefined)	35.5 µM [falling, single point]	–
CCCCc1c(O)nc2n(c1=O)CCS2	11.6 µM [falling, partial curve, poor fit]	–
CC1=[N+](C)N(c2ccccc2)C(=O)C1N=Cc1c(Cl)cccc1Cl (centres undefined)	5.17 µM [rising, partial curve, poor fit]	–
O=C(C1=NN[C@@H]2C(=O)N(c3ccccc3C(F)(F)F)C(=O)[C@H]12)c1cnccn1	31.6 µM [rising, single point]	–
CC1(C)CC(=O)C2=C(C1)NC1=C(C(=O)c3ccccc31)C2c1ccc(Cl)cc1 (centres undefined)	29.1 µM [falling, single point]	–
CN(CC(=O)Nc1cccc2ccccc12)C(=O)/C=C/c1cccs1	9.2 µM [falling, partial curve]	–
Cc1ccc(C(NC(=O)NC(C)c2ccccc2)C(Cl)(Cl)Cl)cc1F (centres undefined)	20.6 µM [falling, partial curve, poor fit]	–
Cc1cc(C)cc(Oc2ccc(S(=O)(=O)N3CCN(C)CC3)cn2)c1	23.1 µM [falling, partial curve, poor fit]	–
COC(=O)CCN1CCN(S(=O)(=O)c2cccc(Br)c2)CC1	1.78 µM [rising, full curve, poor fit]	–
CN(C)S(=O)(=O)c1ccc2c(c1)/C(=C/c1cc3c([nH]1)CCCC3)C(=O)N2	1.84 µM [falling, full curve]	–
O=C(CCn1nc(-c2ccc(Cl)cc2)ccc1=O)NCCc1ccccc1	5.62 µM [rising, single point]	–
O=C(Nc1ccccc1F)C(=O)c1cn(CC(=O)N2CCCCC2)c2ccccc12	1.41 µM [falling, full curve]	–
CC1(C)CC(=O)C=C(NCC(O)c2ccccc2)C1 (centres undefined)	25.1 µM [falling, partial curve, poor fit]	–
CSC1=NCCN1C(=O)COc1ccccc1	5.8 µM [rising, single point]	–
Cc1ccc(-c2noc(CCC(=O)NCCc3ccccc3Cl)n2)cc1	3.26 µM [rising, full curve]	–
CN(C)N1C(N)=C(C#N)C(c2ccc(Cl)cc2)C2=C1CCCC2=O (centres undefined)	1.58 µM [falling, full curve]	–
O=C(Nc1nc2ccccc2s1)c1c(F)cccc1Cl	7.94 µM [falling, partial curve]	–
O=C(NNC(=O)c1ccccc1Br)c1ccc(Cl)c(Cl)c1	2.51 µM [falling, full curve]	–

SMILES	AC50 [1]	AC50 [2]
Cc1ccc(Cn2nnc3c(=O)[nH]c(C4CCN(S(=O)(=O)c5ccc(C)cc5)CC4)nc32)cc1	8.2 µM [falling, partial curve, poor fit]	–
COc1ccccc1N(CC(=O)NCCSc1ccccn1)S(=O)(=O)c1ccccc1	11.2 µM [falling, partial curve, poor fit]	–
CCCCCSc1nc2c(c(=O)[nH]c(=O)n2C)n1C(C)C	0.651 µM [rising, full curve, poor fit]	2.91 µM [falling, partial curve, poor fit]
COc1ccc(C(=O)CSc2nc(C(C)(C)C)nc3ccccc23)cc1	22.4 µM [rising, partial curve, poor fit]	–
CC(C)(C)NC(=O)C(c1ccc(O)cc1)N(C(=O)CCC(=O)Nc1nccs1)c1cccc(F)c1 (centres undefined)	8.91 µM [falling, partial curve, poor fit]	–
COc1ccc(N2CCN(C(c3ccccc3F)c3sc4nc(-c5ccco5)nn4c3O)CC2)cc1 (centres undefined)	25.1 µM [rising, partial curve, poor fit]	–
C[C@H](CO)N1C[C@H](C)[C@@H](CN(C)S(C)(=O)=O)Oc2c(NC(=O)Nc3ccc4c(c3)OCO4)cccc2C1=O	16.4 µM [rising, partial curve, poor fit]	–
O=C(O)CC(CCc1ccccc1)OC1OC(CO)C(O)C(O)C1O (centres undefined)	17.8 µM [rising, partial curve, poor fit]	–
COC(=O)c1cc(=O)nc2sc(-c3ccc(F)cc3)nn12	11.2 µM [rising, partial curve, poor fit]	–
COc1ccc2nc(-c3ccccc3)cc(C(=O)OCC(=O)N3CC(C)OC(C)C3)c2c1 (centres undefined)	0.206 µM [rising, full curve, poor fit]	–
O=C(Cn1nc(-c2ccc(N3CCOCC3)c([N+](=O)[O-])c2)c2ccccc2c1=O)N1CCCCC1	25.9 µM [rising, single point]	–
Cc1cccc2cc(CN(CCCO)C(=O)Nc3cccc(Cl)c3)c(=O)[nH]c12	20 µM [falling, single point]	–
Cc1ccc(/C(N)=N/OC(=O)Cc2cccs2)cc1	0.891 µM [rising, full curve]	–
Cc1cc(OCCN2CCCCC2)nc2ccccc12	2.59 µM [falling, partial curve, poor fit]	–
CCC1(CC)Cc2ccccc2-c2nc(NN)[nH]c(=O)c21	28.2 µM [falling, single point]	–
Cc1cc(C)c(C2C3=C(Nc4c2c(C)nn4-c2ccccn2)c2ccccc2C3=O)c(C)c1 (centres undefined)	2.91 µM [rising, partial curve, poor fit]	–
COc1ccc(/C=C/c2nc3ccccc3c(=O)o2)cc1	5.62 µM [falling, full curve, poor fit]	–
Brc1cccc(CN2CCN(c3ncccn3)CC2)c1	11.2 µM [rising, partial curve]	–
Cc1c(C)c2c(OCC(=O)NCCCO)cc3c(c2oc1=O)CCC(C)(C)O3	1.26 µM [rising, single point]	–
C=CCNC(=O)c1onc(CSc2ccccc2CC)c1C(=O)O	5.62 µM [falling, partial curve]	–
Cn1c(SCc2nc(-c3ccc(Br)cc3)no2)nnc1-c1ccco1	14.6 µM [rising, single point]	–

SMILES	AC50 [1]	AC50 [2]
O=C(NC1CCS(=O)(=O)C1)c1cn(-c2ccccc2)nc1-c1ccccc1 (centres undefined)	8.91 µM [rising, partial curve, poor fit]	–
CC(C)NC(=O)c1ccc(Sc2ccccc2)c([N+](=O)[O-])c1	0.0103 µM [rising, full curve, poor fit]	–
CCCCCOc1ccc(CSC(=N)N)cc1[N+](=O)[O-]	11.2 µM [falling, partial curve]	–
O=C1NC(=O)/C(=C\c2ccccc2OCc2ccc([N+](=O)[O-])cc2)N1	1.64 µM [rising, full curve, poor fit]	–
CCOC(=O)C1=C(C)NC(C)=C(C(=O)OCC)C1C(=O)OCC(=O)N(CC)C1CCS(=O)(=O)C1 (centres undefined)	3.16 µM [rising, full curve, poor fit]	–
CC12CCC(C(=O)N3CCCCCC3)(OC1=O)C2(C)C (centres undefined)	0.411 µM [rising, partial curve, poor fit]	–
O=C(NCc1cccs1)c1cccn2c(=O)c3sccc3nc12	3.55 µM [falling, partial curve, poor fit]	–
Cc1sc2nc(COC(=O)c3c(F)cccc3F)[nH]c(=O)c2c1C	4.47 µM [rising, partial curve, poor fit]	–
C/C(=N\Nc1ccc([N+](=O)[O-])cc1)c1ccc(C#N)cc1	0.316 µM [rising, full curve, poor fit]	–
CC1=Nc2cc(C(=O)NCC3CCCO3)ccc2Sc2ccc(C)cc21 (centres undefined)	3.16 µM [rising, full curve]	3.98 µM [falling, full curve]
Cc1ccc(C(=O)N[C@H](C(=O)OCC(=O)NC2CCS(=O)(=O)C2)C(C)C)cc1 (some centres undefined)	16.4 µM [rising, single point]	–
Cc1cccc(-n2cnc3sc(C)c(C)c3c2=O)c1	14.1 µM [falling, single point]	–
CN(C)CCCNC(=O)c1cc2c3ccccc3n(C)c2s1	7.08 µM [falling, partial curve, poor fit]	–
C/C(=N\NC(=O)c1csc(C)c1C)c1ccc(Cl)s1	7.31 µM [falling, partial curve]	–
O=C(COc1ccccc1)N1CCN(c2ccc([N+](=O)[O-])c(N3CCCCC3)c2)CC1	35.5 µM [falling, single point]	–
CN(CC(=O)NCC1COc2ccccc2O1)S(=O)(=O)c1ccc(Cl)cc1 (centres undefined)	6.51 µM [rising, single point]	–
CC1CN(S(=O)(=O)c2cccc(C(=O)OCc3cc(=O)oc4cc(O)ccc34)c2)CC(C)O1 (centres undefined)	20.6 µM [falling, single point]	–
O=C(NC1CCCC1)C(c1ccncc1)N(C(=O)c1ccco1)c1ccccc1 (centres undefined)	15.8 µM [falling, partial curve, poor fit]	–
COc1ccccc1/C=C/C=N/Nc1cccc(C(=O)O)c1	2.24 µM [falling, full curve]	–
CCn1ncc(-c2csc(N)n2)c1C	5.62 µM [rising, single point]	–

Record cards, as listed above:
`O=C(COc1ccccc1)N1CCN(c2ccc([N+](=O)[O-])c(N3CCCCC3)c2)CC1` reads AC50 [1]: 35.5 µM [falling, single point]
`Cc1sc2nc(COC(=O)c3c(F)cccc3F)[nH]c(=O)c2c1C` reads AC50 [1]: 4.47 µM [rising, partial curve, poor fit]
`COc1ccccc1/C=C/C=N/Nc1cccc(C(=O)O)c1` reads AC50 [1]: 2.24 µM [falling, full curve]
`O=C(NC1CCCC1)C(c1ccncc1)N(C(=O)c1ccco1)c1ccccc1` (centres undefined) reads AC50 [1]: 15.8 µM [falling, partial curve, poor fit]
